According to patent US8546072B2 (Wako Pure Chemical Industries, Ltd., priority 2008, dated 2013):

Assay: general procedure: solution-phase peptide synthesis; DCC/hydroxybenzotriazole

Row | Substance | step yield (late stage modification step) [%] | step yield (coupling step) [%]
1 | Boc-Thr-Gly-Arg-Gly-NH(CH2)4NHTfa | 17.1 | 
2 | Boc-Thr-Gly-Arg-Gly-NH(CH2)4NH2 | 20.3 | 
3 | Boc-Thr-Gly-Arg(NO2)-Gly-NH(CH2)4NHTfa |  | 63.0
